Ten molecules from PMC8888484, “Ubr1-induced selective endophagy/autophagy protects against the endosomal and Ca^2+-induced proteostasis disease stress” (Cellular and Molecular Life Sciences: CMLS, 2022) can be followed below.

Sequences of proteins named here, by UniProt entry; tags and fusion partners are left off.
UniProt Q9UNE7: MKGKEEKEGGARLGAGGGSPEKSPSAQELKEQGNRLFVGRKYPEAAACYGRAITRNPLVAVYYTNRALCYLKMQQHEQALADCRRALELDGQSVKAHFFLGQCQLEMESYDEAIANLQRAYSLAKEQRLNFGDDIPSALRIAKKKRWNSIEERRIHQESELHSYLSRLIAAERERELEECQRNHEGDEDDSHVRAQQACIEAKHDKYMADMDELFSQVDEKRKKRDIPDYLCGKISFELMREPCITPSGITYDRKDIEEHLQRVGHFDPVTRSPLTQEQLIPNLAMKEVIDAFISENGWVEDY
UniProt P11142: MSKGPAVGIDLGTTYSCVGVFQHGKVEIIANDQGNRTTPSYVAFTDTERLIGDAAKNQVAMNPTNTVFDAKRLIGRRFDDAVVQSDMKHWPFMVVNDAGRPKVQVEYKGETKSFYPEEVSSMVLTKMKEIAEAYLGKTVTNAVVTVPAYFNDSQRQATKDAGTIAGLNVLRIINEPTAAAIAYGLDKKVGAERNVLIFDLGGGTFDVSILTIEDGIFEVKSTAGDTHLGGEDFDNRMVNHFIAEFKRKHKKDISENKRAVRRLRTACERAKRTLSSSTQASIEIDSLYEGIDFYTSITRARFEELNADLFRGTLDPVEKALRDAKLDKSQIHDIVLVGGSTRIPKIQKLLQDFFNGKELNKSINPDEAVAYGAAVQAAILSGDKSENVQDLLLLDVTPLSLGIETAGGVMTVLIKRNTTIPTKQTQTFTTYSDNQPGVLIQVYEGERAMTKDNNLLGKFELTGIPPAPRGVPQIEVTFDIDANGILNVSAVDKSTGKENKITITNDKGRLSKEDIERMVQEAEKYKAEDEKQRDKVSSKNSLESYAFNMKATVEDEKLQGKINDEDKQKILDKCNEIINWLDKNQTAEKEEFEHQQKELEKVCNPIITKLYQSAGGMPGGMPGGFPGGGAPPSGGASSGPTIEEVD
UniProt P25685: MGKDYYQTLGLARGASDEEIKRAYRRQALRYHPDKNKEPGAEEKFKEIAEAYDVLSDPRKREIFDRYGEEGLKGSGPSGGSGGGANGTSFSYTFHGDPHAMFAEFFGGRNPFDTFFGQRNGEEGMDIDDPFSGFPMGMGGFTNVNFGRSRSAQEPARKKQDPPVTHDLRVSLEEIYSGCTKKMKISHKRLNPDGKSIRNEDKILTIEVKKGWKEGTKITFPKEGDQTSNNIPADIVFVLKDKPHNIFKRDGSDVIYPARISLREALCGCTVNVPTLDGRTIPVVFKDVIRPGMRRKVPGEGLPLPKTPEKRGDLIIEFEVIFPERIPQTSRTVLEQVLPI
UniProt P08238: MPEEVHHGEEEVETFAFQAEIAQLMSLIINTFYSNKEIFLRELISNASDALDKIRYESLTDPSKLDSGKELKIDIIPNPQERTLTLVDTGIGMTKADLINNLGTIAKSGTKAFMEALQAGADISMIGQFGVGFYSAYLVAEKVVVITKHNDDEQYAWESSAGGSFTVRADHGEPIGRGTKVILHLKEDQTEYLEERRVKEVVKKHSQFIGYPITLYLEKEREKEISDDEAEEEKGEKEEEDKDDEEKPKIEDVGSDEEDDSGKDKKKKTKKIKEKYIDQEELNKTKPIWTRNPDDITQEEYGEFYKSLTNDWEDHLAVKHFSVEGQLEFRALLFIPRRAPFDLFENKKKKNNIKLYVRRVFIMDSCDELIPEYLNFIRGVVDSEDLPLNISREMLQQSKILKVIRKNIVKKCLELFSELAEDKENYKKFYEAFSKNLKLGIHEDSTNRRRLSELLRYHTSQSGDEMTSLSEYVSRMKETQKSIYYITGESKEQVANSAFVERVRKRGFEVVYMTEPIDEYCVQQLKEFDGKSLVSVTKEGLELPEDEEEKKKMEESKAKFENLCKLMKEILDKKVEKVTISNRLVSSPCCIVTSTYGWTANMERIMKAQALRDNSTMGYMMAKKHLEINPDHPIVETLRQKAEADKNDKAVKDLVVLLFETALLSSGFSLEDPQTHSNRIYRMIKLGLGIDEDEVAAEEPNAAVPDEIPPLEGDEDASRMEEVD

The target in experiment [1] is T1, 2HA-MLC1-C326R (human (by the printed GeneID 23209; the paper does not say the species in words)) (UniProt Q15049).
T1 sequence: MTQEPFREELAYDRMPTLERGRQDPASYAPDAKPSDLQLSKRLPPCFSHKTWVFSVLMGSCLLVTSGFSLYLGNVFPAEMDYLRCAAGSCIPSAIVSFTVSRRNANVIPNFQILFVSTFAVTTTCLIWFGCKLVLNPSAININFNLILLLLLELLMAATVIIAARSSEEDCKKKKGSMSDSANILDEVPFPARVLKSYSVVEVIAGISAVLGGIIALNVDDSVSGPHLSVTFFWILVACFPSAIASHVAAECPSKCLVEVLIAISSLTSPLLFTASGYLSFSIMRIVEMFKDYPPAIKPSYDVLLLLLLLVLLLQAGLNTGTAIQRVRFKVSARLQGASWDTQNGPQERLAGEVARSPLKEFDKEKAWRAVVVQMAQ
Nature of the experiment: co-IP; cell surface immunoprecipitation (cs-IP): anti-GlialCAM Ab bound to live HeLa cells 45 min on ice, unbound Ab washed off, lysis (0.4% NP-40 in co-IP assays), MLC1/GlialCAM complex precipitated, Western blot; signals normalised to precipitated MLC1; for Fig. 7G cells with siUbr1 or siNT and Flag-Ubr1-wt or -CI. Background: Immunoblotting shows a protein as a band on a membrane.

The target of experiment [2] is T2, 2HA-MLC1-P92S (human (by the printed GeneID 23209; the paper does not say the species in words)) (UniProt Q15049).
T2 sequence: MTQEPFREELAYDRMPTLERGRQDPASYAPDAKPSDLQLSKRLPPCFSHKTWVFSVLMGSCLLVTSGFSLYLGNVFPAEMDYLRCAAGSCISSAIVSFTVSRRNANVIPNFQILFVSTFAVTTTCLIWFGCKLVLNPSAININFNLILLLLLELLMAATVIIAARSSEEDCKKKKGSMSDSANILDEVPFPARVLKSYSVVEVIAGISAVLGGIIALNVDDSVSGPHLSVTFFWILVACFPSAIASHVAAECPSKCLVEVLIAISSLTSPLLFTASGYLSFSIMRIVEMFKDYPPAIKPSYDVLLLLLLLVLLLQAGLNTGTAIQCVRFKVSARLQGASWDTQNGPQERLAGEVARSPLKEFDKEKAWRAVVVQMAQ
Described as above.

Experiment [3] has as its target T3, 2HA-MLC1-S280L (human (by the printed GeneID 23209; the paper does not say the species in words)) (UniProt Q15049).
T3 sequence: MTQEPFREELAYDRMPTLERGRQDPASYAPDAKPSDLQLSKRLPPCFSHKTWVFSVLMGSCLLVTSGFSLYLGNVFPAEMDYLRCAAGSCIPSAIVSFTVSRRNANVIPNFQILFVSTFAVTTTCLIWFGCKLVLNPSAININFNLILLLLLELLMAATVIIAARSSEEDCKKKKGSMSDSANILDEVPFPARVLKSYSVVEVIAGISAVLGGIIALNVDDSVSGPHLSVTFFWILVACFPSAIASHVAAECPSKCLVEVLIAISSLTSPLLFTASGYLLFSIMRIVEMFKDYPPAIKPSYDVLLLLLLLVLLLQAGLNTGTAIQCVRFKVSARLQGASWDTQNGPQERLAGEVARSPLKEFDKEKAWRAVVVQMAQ
Put plainly: co-IP; total cell IP of the cellular pool of MLC1: Ab added directly to lysates of HeLa cells with siUbr1 or siNT and Flag-Ubr1-wt or -CI; Western blot for chaperones.

Experiment [4] addresses T3, 2HA-MLC1-S280L (human (by the printed GeneID 23209; the paper does not say the species in words)). Nature of the experiment: co-IP; cell surface immunoprecipitation (cs-IP): anti-GlialCAM Ab bound to live HeLa cells 45 min on ice, unbound Ab washed off, lysis (0.4% NP-40 in co-IP assays), MLC1/GlialCAM complex precipitated, Western blot; signals normalised to precipitated MLC1; for Fig. 7G cells with siUbr1 or siNT and Flag-Ubr1-wt or -CI.

For experiment [5] the target is unchanged. Nature of the experiment: co-IP; cs-IP with anti-GlialCAM Ab (as in Fig. 3A) from HA-MLC1-S280L U251N cells treated with siUbr1 or siNT and with or without BafA1; Western blot.
Experiment [6] deals with T4, GlialCAM (glial cell adhesion molecule), Flag-tagged (UniProt Q14CZ8).
T4 sequence: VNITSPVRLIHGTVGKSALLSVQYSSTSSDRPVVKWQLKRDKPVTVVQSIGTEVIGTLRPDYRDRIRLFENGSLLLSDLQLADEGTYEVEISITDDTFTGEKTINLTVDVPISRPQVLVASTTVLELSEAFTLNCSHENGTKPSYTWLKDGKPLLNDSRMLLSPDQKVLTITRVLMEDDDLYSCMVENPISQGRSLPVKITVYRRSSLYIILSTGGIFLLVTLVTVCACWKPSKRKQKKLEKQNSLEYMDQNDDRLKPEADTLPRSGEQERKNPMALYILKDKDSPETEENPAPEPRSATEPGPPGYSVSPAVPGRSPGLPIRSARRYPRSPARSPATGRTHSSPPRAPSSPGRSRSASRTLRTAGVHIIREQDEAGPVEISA
Nature of the experiment: co-IP; cell surface immunoprecipitation (cs-IP): anti-GlialCAM Ab bound to live HeLa cells 45 min on ice, unbound Ab washed off, lysis (0.4% NP-40 in co-IP assays), MLC1/GlialCAM complex precipitated, Western blot; signals normalised to precipitated MLC1; for Fig. 7G cells with siUbr1 or siNT and Flag-Ubr1-wt or -CI.

Results are given in words; binding and its absence hold for the method and conditions named. Binding seen in cells or lysates may run through a third protein. Some entries that bind do so weakly or less than the wild type. For part of these data: Tags and fused reporters may be left off the sequences shown.

On to “CHIP (C-terminus of Hsc70-interacting protein) (from UniProt Q9UNE7 1-303)”, for which the binding entry in experiment [1] and in experiment [2] was “binds” in each case.
In the case of Hsc70 (from UniProt P11142 1-646), the binding entry in experiment [3], in experiment [1], in experiment [2] and in experiment [4] was “binds” each time.
As to “Hsp40 (DNAJB1) (from UniProt P25685 1-340)”, the binding entry in experiment [3], in experiment [1], in experiment [2] and in experiment [4] was “binds” throughout.
In the case of “Hsp90α (90 kDa) (from UniProt P07900 1-732)”, the binding result in experiment [3] is “binds”.
Regarding “Hsp90β (83.2 kDa) (from UniProt P08238 1-724)”, the binding entry in experiment [3] and in experiment [4] was “binds” each time.
Turning to SQSTM1/p62 (from UniProt Q13501 1-440), in experiment [5], the binding entry is “binds”.

B1: 2HA-MLC1 wild type (megalencephalic leukoencephalopathy with subcortical cyst 1) (protein, UniProt Q15049 1-377)
chain: MTQEPFREELAYDRMPTLERGRQDPASYAPDAKPSDLQLSKRLPPCFSHKTWVFSVLMGSCLLVTSGFSLYLGNVFPAEMDYLRCAAGSCIPSAIVSFTVSRRNANVIPNFQILFVSTFAVTTTCLIWFGCKLVLNPSAININFNLILLLLLELLMAATVIIAARSSEEDCKKKKGSMSDSANILDEVPFPARVLKSYSVVEVIAGISAVLGGIIALNVDDSVSGPHLSVTFFWILVACFPSAIASHVAAECPSKCLVEVLIAISSLTSPLLFTASGYLSFSIMRIVEMFKDYPPAIKPSYDVLLLLLLLVLLLQAGLNTGTAIQCVRFKVSARLQGASWDTQNGPQERLAGEVARSPLKEFDKEKAWRAVVVQMAQ
As to B1, in experiment [6], the binding result is on record as “binds”.

B2: 2HA-MLC1-S280L (protein, UniProt Q15049 1-377)
chain: MTQEPFREELAYDRMPTLERGRQDPASYAPDAKPSDLQLSKRLPPCFSHKTWVFSVLMGSCLLVTSGFSLYLGNVFPAEMDYLRCAAGSCIPSAIVSFTVSRRNANVIPNFQILFVSTFAVTTTCLIWFGCKLVLNPSAININFNLILLLLLELLMAATVIIAARSSEEDCKKKKGSMSDSANILDEVPFPARVLKSYSVVEVIAGISAVLGGIIALNVDDSVSGPHLSVTFFWILVACFPSAIASHVAAECPSKCLVEVLIAISSLTSPLLFTASGYLLFSIMRIVEMFKDYPPAIKPSYDVLLLLLLLVLLLQAGLNTGTAIQCVRFKVSARLQGASWDTQNGPQERLAGEVARSPLKEFDKEKAWRAVVVQMAQ
Consider B2, for which the binding result in experiment [6] is “binds”.

B3: 2HA-MLC1-C326R (protein, UniProt Q15049 1-377)
chain: MTQEPFREELAYDRMPTLERGRQDPASYAPDAKPSDLQLSKRLPPCFSHKTWVFSVLMGSCLLVTSGFSLYLGNVFPAEMDYLRCAAGSCIPSAIVSFTVSRRNANVIPNFQILFVSTFAVTTTCLIWFGCKLVLNPSAININFNLILLLLLELLMAATVIIAARSSEEDCKKKKGSMSDSANILDEVPFPARVLKSYSVVEVIAGISAVLGGIIALNVDDSVSGPHLSVTFFWILVACFPSAIASHVAAECPSKCLVEVLIAISSLTSPLLFTASGYLSFSIMRIVEMFKDYPPAIKPSYDVLLLLLLLVLLLQAGLNTGTAIQRVRFKVSARLQGASWDTQNGPQERLAGEVARSPLKEFDKEKAWRAVVVQMAQ
Turning to B3, the binding entry in experiment [6] is given as “binds”.

B4: 2HA-MLC1-P92S (protein, UniProt Q15049 1-377)
chain: MTQEPFREELAYDRMPTLERGRQDPASYAPDAKPSDLQLSKRLPPCFSHKTWVFSVLMGSCLLVTSGFSLYLGNVFPAEMDYLRCAAGSCISSAIVSFTVSRRNANVIPNFQILFVSTFAVTTTCLIWFGCKLVLNPSAININFNLILLLLLELLMAATVIIAARSSEEDCKKKKGSMSDSANILDEVPFPARVLKSYSVVEVIAGISAVLGGIIALNVDDSVSGPHLSVTFFWILVACFPSAIASHVAAECPSKCLVEVLIAISSLTSPLLFTASGYLSFSIMRIVEMFKDYPPAIKPSYDVLLLLLLLVLLLQAGLNTGTAIQCVRFKVSARLQGASWDTQNGPQERLAGEVARSPLKEFDKEKAWRAVVVQMAQ
Consider B4, for which the binding result in experiment [6] is reported as “binds”.
